Source: ChEMBL document CHEMBL3988442, “University of Dundee, Small-Polar-MMV Screening Library” (2021).

Chains of the proteins cited; added tags and fusions are not shown.
UniProt E9BF75, entry or part of it: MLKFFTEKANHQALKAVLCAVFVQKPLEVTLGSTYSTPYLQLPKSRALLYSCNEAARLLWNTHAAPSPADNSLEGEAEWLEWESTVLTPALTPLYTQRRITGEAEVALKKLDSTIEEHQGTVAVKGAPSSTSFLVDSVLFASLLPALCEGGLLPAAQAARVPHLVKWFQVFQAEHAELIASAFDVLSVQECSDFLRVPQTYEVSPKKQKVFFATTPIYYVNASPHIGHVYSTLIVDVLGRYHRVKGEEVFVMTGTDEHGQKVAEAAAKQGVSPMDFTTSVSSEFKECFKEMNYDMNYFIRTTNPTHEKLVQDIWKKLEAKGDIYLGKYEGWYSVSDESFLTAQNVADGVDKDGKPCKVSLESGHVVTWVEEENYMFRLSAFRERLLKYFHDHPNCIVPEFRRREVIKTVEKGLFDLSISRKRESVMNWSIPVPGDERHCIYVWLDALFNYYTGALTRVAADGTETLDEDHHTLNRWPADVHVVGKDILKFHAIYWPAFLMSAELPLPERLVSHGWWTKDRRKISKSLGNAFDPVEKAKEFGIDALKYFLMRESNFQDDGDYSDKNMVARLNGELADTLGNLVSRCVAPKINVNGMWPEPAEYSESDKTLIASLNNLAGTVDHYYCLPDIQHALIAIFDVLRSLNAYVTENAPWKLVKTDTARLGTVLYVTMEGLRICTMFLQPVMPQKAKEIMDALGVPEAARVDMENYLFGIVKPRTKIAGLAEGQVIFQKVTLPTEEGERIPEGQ

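Primary screen of methionyl-tRNA synthetase; the read-out is not stated. Target: Methionyl-tRNA synthetase (putative), Leishmania donovani (UniProt E9BF75). The test concentration is not given. The values are filed as inhibition. About 68,000 compounds were tested under these conditions; 0.035% (about 24) showed 50% or more at least once.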

All values are in %.
The record does not define 0% and 100%; most values in the screen are far below 50% and negative numbers occur (in some assays of this library far below -100).
Compounds were drawn at random from those tested, without regard to their results.

structure: c1ccc2c(N3CCCCC3Cn3cccn3)ncnc2c1 (stereo unspecified)
Inhibition: 16.83%

structure: CCS(=O)(=O)c1ncc(CN(C)Cc2cccc(OC)c2)n1CCOC
Inhibition: 6.02%

structure: CCOc1ccc2cc(C(=O)NCCC(=O)N(C)C)[nH]c2c1
Inhibition: 16.26%

structure: CCC(Nc1ccc(CCN2CCCCC2)cc1)C(N)=O (stereo unspecified)
Inhibition: 26.01%

structure: Cc1occc1C(=O)N1CCc2c(COCC3CC3)cncc2C1
Inhibition: 19.19%

structure: CCOC(=O)N1CCC(OC)c2ccccc2N(CC(=O)NC)C(=O)C1 (stereo unspecified)
Inhibition: 15.62%

structure: Cc1ccc(CN2CC(C(=O)NCC3CC3)C3(CCOCC3)C2)s1 (stereo unspecified)
Inhibition: 8.065%

structure: COCCC(=O)N1CCN(C)c2ncccc2C1
Inhibition: 11.81%

structure: COc1cc(C2CC(=O)Nc3c2c(=O)[nH]n3C2CCCCC2)ccc1O (stereo unspecified)
Inhibition: 9.651%

structure: O=C([C@H]1COC[C@H]2CN(c3ncc(F)cn3)C[C@H]21)N1CCOCC1
Inhibition: 10.87%

structure: CCC1CN(C(=O)c2cncc(C)c2)CCC(=O)N1Cc1ccccc1 (stereo unspecified)
Inhibition: 9.929%

structure: CC1CN(CC(=O)NCc2cccs2)CCN1c1nccs1 (stereo unspecified)
Inhibition: 18.33%

structure: CN1CCN(Cc2cnn(-c3ccccc3Cl)c2)[C@H]2CS(=O)(=O)C[C@H]21
Inhibition: 9.415%

structure: Cc1ccc(Cn2cc(C)c(N)n2)cc1
Inhibition: 3.514%

structure: O=C(NCC1CC1)C1CN(C(=O)c2cccs2)CC12CCOCC2 (stereo unspecified)
Inhibition: 15.48%

structure: CNC(=O)c1sc(C2CCCC2)nc1C
Inhibition: 7.292%

structure: CCCNS(=O)(=O)c1cnccc1N1CCN(C(C)C)CC1
Inhibition: -11.6%

structure: COc1cccc(CC(=O)N2CCC(NCc3c[nH]nc3C)CC2)c1
Inhibition: 9.841%

structure: CCOc1cc(C(=O)N2CCCC(c3noc(C(C)C)n3)C2)ccn1 (stereo unspecified)
Inhibition: 13.69%

structure: Cc1n[nH]c(C)c1NC(=O)CN1CCN(c2nccs2)C(C)C1 (stereo unspecified)
Inhibition: 15%

structure: Cc1cc(C(F)(F)F)cc(N2C[C@@H](CN3CCOCC3)[C@@H](CO)C2)n1
Inhibition: 19.23%

structure: O=C(Cc1cc(F)cc(Cl)c1)N[C@@H]1CCNC[C@H]1O
Inhibition: 15.86%

structure: Cc1nn(-c2ccc(F)cc2)c2[nH]nc(N)c12
Inhibition: 0.5435%

structure: FC(F)(F)Oc1cccc(CNC[C@H]2Cn3ccnc3CO2)c1
Inhibition: 11.86%

structure: CCN(CC)[C@@H]1CN(C(=O)c2ccnnc2)[C@@H]2CCCO[C@H]12
Inhibition: 13.04%

structure: Cc1noc(C)c1CCC(=O)N1CCCN(Cc2cscn2)CC1
Inhibition: 12.24%

structure: COc1ccc(OC)c2c(C)cc(N(C)CCO)nc12
Inhibition: 12.11%

structure: c1cnc(N2CCC3(CN(CC4CCOC4)C3)C2)nc1 (stereo unspecified)
Inhibition: -1.25%

structure: CC(=O)Nc1ccc(-c2ccccc2NC(=O)CN)cc1
Inhibition: 7.588%

structure: Cc1nc(C)n(C2CCCN(C(=O)Cc3cccnc3)C2)n1 (stereo unspecified)
Inhibition: 19.05%

structure: COC(=O)c1ccc(NC(C)c2ccc3c(c2)CC(=O)N3)nn1 (stereo unspecified)
Inhibition: -6.017%

structure: CC(C)CN1CC(O)CN(S(=O)(=O)c2ccc(F)cc2)CC1=O (stereo unspecified)
Inhibition: 11.23%

structure: COCCCN1C(=O)c2ccc(C(=O)NCCc3c[nH]cn3)cc2C1=O
Inhibition: 6.034%

structure: COCCCNC(=O)C1CN(C(=O)c2cnccn2)C1
Inhibition: 9.353%

structure: CCn1cnnc1CNS(=O)(=O)N1CCCC1c1ccco1 (stereo unspecified)
Inhibition: 9.322%

structure: O=C(NCC(=O)N1CCc2ccccc2C1)c1cnccn1
Inhibition: 11.86%